Values from PubChem BioAssay AID504764 (Drosophila RNAi Screening Center, 2011)

Test: 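Genes whose knock-down alters Notch-dependent transcription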 (primary screen)
Cells: Drosophila Kc167 cells
Reagents: long dsRNA against Drosophila genes
Timing: about 5 days (4 days dsRNA, then 24 h after transfection)
Conditions: transfection of constitutively active membrane-tethered Notch lacking the extracellular domain, read 24 h later
Read-out: 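Firefly luciferase from an E(spl)m3 reporter with active Notch, plus control-promoter and uninduced reporter wells for normalisation; unnormalised counts, duplicate wells a and b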
Scale: induced reporter light, run 1, well a and induced reporter light, run 1, well b: higher = more light from the Notch target reporter with active Notch; control promoter light, run 1, well a and control promoter light, run 1, well b: higher = more light from the viral control promoter (cell number, transfection, viability); uninduced reporter light, run 1, well a: higher = more light from the Notch target reporter without active Notch
Call rule: 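Hit if the duplicate-averaged log2 ratio of induced to control-promoter light gives a plate-wise z beyond ±2, or induced to uninduced beyond ±1.8; weak-control or discordant-duplicate wells dropped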
Calls: active = modifier hit (raised or lowered Notch signal); inactive = not a hit
In all, the deposit lists about 22,000 reagents; this is a random part of those that have a named target and a result. In the full data, 403 (1.9%) are marked active. 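Unnormalised raw counts per well; ratio z-scores behind the hit calls and whether each hit raises or lowers signal are not deposited.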 A plus sign joins genes that one reagent is predicted to hit. Not given: the amount of reagent.

Gene | PubChem SID | induced reporter light, run 1, well a | induced reporter light, run 1, well b | control promoter light, run 1, well a | control promoter light, run 1, well b | uninduced reporter light, run 1, well a | call
fng (fringe) | SID104191247 | 2.47e5 | 2.60e5 | 3.05e5 | 3.10e5 | 23065 | inactive
fng (fringe) | SID104191679 | 1.23e5 | 1.29e5 | 80015 | 86790 | 9705 | inactive
Gcn5 (Gcn5 acetyltransferase) | SID104191040 | 1.05e5 | 98070 | 66360 | 41930 | 7895 | inactive
CG18542 + CG32939 | SID104195134 | 1.56e5 | 1.58e5 | 87490 | 91140 | 12215 | inactive
Hrb27C (Heterogeneous nuclear ribonucleoprotein at 27C) | SID104183139 | 16480 | 17015 | 15915 | 14070 | 1410 | inactive
CG10252 | SID104194013 | 1.28e5 | 1.25e5 | 2.01e5 | 1.66e5 | 13810 | inactive
Obp99b (Odorant-binding protein 99b) | SID104196056 | 77820 | 88560 | 1.18e5 | 1.29e5 | 8300 | inactive
CG9877 | SID104184379 | 2.06e5 | 1.65e5 | 1.62e5 | 1.73e5 | 13945 | inactive
CG33158 | SID104189500 | 1.64e5 | 2.04e5 | 2.98e5 | 3.02e5 | 12870 | inactive
CG33158 | SID104189501 | 1.63e5 | 1.80e5 | 2.16e5 | 1.64e5 | 7635 | inactive
CG33158 | SID104190230 | 1.88e5 | 1.45e5 | 2.70e5 | 1.76e5 | 9180 | inactive
CG3679 | SID104199138 | 1.79e5 | 1.79e5 | 2.07e5 | 1.96e5 | 13765 | inactive
CG17994 | SID104184669 | 1.58e5 | 1.40e5 | 1.62e5 | 1.63e5 | 8732 | inactive
mtTFB2 (mitochondrial transcription factor B2) | SID104195311 | 1.04e5 | 1.63e5 | 1.51e5 | 1.64e5 | 3370 | inactive
sstn (stepping stone) | SID104190545 | 1.47e5 | 1.59e5 | 1.30e5 | 1.16e5 | 9150 | active
CG32985 | SID104182426 | 88360 | 1.19e5 | 64295 | 92150 | 15960 | inactive
ohgt (ohgata) | SID104195313 | 54645 | 69975 | 55025 | 41935 | 2800 | inactive
CG9663 | SID104180516 | 2.13e5 | 1.74e5 | 1.67e5 | 1.88e5 | 14605 | inactive
CG10948 | SID104189598 | 1.80e5 | 2.00e5 | 2.39e5 | 2.05e5 | 10145 | inactive
CG6244 | SID104190401 | 1.09e5 | 1.54e5 | 1.30e5 | 1.24e5 | 7640 | inactive
Sgs4 (Salivary gland secretion 4) | SID104198507 | 1.12e5 | 1.31e5 | 1.98e5 | 2.06e5 | 7242 | inactive
Ubc7 (Ubiquitin conjugating enzyme 7) | SID104200091 | 1.22e5 | 96610 | 1.14e5 | 99675 | 11300 | inactive
Tpc1 | SID104195406 | 89145 | 76910 | 77950 | 52390 | 5635 | inactive
Tpc1 | SID104195866 | 1.24e5 | 1.17e5 | 94880 | 73240 | 9060 | inactive
Rbcn-3B (Rabconnectin-3B) | SID104198366 | 83460 | 71310 | 88850 | 99315 | 3840 | inactive
CG11099 | SID104185826 | 1.24e5 | 1.01e5 | 1.74e5 | 1.53e5 | 9795 | inactive
HtrA2 (HTRA2-related serine protease) | SID104196217 | 2.52e5 | 2.57e5 | 1.86e5 | 1.94e5 | 16375 | inactive
Mitofilin | SID104196534 | 48795 | 54065 | 73360 | 65260 | 3200 | inactive
CG3610 | SID104195294 | 2.48e5 | 2.67e5 | 2.32e5 | 2.52e5 | 18590 | inactive

Laid out differently: results already given
{"Gene": "CG33158", "PubChem SID": "SID104189501", "induced reporter light, run 1, well a": 1.63e5, "induced reporter light, run 1, well b": 1.80e5, "control promoter light, run 1, well a": 2.16e5, "control promoter light, run 1, well b": 1.64e5, "uninduced reporter light, run 1, well a": 7635, "call": "inactive"}
{"Gene": "CG33158", "PubChem SID": "SID104190230", "induced reporter light, run 1, well a": 1.88e5, "induced reporter light, run 1, well b": 1.45e5, "control promoter light, run 1, well a": 2.70e5, "control promoter light, run 1, well b": 1.76e5, "uninduced reporter light, run 1, well a": 9180, "call": "inactive"}
{"Gene": "CG3679", "PubChem SID": "SID104199138", "induced reporter light, run 1, well a": 1.79e5, "induced reporter light, run 1, well b": 1.79e5, "control promoter light, run 1, well a": 2.07e5, "control promoter light, run 1, well b": 1.96e5, "uninduced reporter light, run 1, well a": 13765, "call": "inactive"}
{"Gene": "CG17994", "PubChem SID": "SID104184669", "induced reporter light, run 1, well a": 1.58e5, "induced reporter light, run 1, well b": 1.40e5, "control promoter light, run 1, well a": 1.62e5, "control promoter light, run 1, well b": 1.63e5, "uninduced reporter light, run 1, well a": 8732, "call": "inactive"}
{"Gene": "mtTFB2 (mitochondrial transcription factor B2)", "PubChem SID": "SID104195311", "induced reporter light, run 1, well a": 1.04e5, "induced reporter light, run 1, well b": 1.63e5, "control promoter light, run 1, well a": 1.51e5, "control promoter light, run 1, well b": 1.64e5, "uninduced reporter light, run 1, well a": 3370, "call": "inactive"}

Further records:
Gene | PubChem SID | induced reporter light, run 1, well a | induced reporter light, run 1, well b | control promoter light, run 1, well a | control promoter light, run 1, well b | uninduced reporter light, run 1, well a | call
CG34319 (retired record) | SID104197930 | 17185 | 16600 | 18585 | 16988 | 4820 | inactive
CG12420 | SID104194306 | 98760 | 95745 | 89775 | 66450 | 4520 | inactive
Pde1c (Phosphodiesterase 1c) | SID104182213 | 1.98e5 | 1.96e5 | 1.18e5 | 1.62e5 | 22160 | inactive
Pde1c (Phosphodiesterase 1c) | SID104182214 | 1.95e5 | 2.14e5 | 1.25e5 | 1.69e5 | 24835 | inactive
Pde1c (Phosphodiesterase 1c) | SID104182215 | 1.14e5 | 1.44e5 | 74230 | 95005 | 16895 | inactive
Pde1c (Phosphodiesterase 1c) | SID104182216 | 1.67e5 | 1.75e5 | 98145 | 1.24e5 | 22665 | inactive
Pde1c (Phosphodiesterase 1c) | SID104182217 | 1.33e5 | 1.35e5 | 1.70e5 | 1.83e5 | 15430 | inactive
Pde1c (Phosphodiesterase 1c) | SID104182218 | 1.37e5 | 1.61e5 | 1.69e5 | 1.92e5 | 12270 | inactive
CG10866 | SID104187963 | 1.69e5 | 1.38e5 | 1.66e5 | 1.56e5 | 7205 | inactive
CG11596 | SID104198332 | 1.73e5 | 2.35e5 | 2.38e5 | 2.28e5 | 14842 | inactive
Gbs-76A (Glycogen binding subunit 76A) | SID104190873 | 1.31e5 | 1.29e5 | 59600 | 83055 | 7665 | inactive
Pp4-19C (Protein phosphatase 19C) | SID104200351 | 58695 | 62245 | 52775 | 55595 | 4890 | inactive
Pp4-19C (Protein phosphatase 19C) | SID104201043 | 56750 | 50995 | 66845 | 72680 | 4730 | inactive
Ythdf (YTH N6-methyladenosine RNA binding protein) | SID104195828 | 2.07e5 | 2.00e5 | 2.19e5 | 2.30e5 | 15240 | inactive
Ythdf (YTH N6-methyladenosine RNA binding protein) | SID104195829 | 1.54e5 | 1.94e5 | 2.77e5 | 2.47e5 | 14205 | inactive
Noc2 (Nucleolar complex protein 2) | SID104182957 | 1.92e5 | 1.63e5 | 1.56e5 | 1.59e5 | 12205 | inactive
CadN2 + CG42830 | SID104182854 | 1.21e5 | 97320 | 1.11e5 | 1.44e5 | 10600 | inactive
CadN2 + CG42830 | SID104182855 | 1.08e5 | 1.24e5 | 1.10e5 | 1.13e5 | 8185 | inactive
CadN2 + CG42830 | SID104182856 | 1.26e5 | 1.40e5 | 1.26e5 | 1.51e5 | 11390 | inactive
CG11679 | SID104199207 | 1.34e5 | 1.01e5 | 1.49e5 | 1.66e5 | 8438 | inactive
SmydA-9 (SET and MYND domain containing, arthropod-specific, member 9) | SID104197606 | 73885 | 77850 | 1.18e5 | 1.46e5 | 5425 | inactive
